According to patent publication US8828401B2 (Pfizer Inc., priority 2011, dated 2014):

Experiment: general procedure: solution-phase peptide synthesis; HATU
[1] = late stage modification step, trifluoroacetic acid salt
[2] = coupling step, HPLC (Protocol A)
[3] = late stage modification step, HPLC (Protocol A)
[4] = late stage modification step, run 1

For “N-{(2R,3R)-3-methoxy-3-[(2S)-1-{(3R,4S,5S)-3-methoxy-5-methyl-4-[methyl(N-{[(2R)-2-methylpiperidin-2-yl]carbonyl}-L-valyl)amino]heptanoyl}pyrrolidin-2-yl]-2-methylpropanoyl}-L-phenylalanine, trifluoroacetic acid salt”, the step yield (late stage modification step) was 68% and the “final HPLC purity” value (late stage modification step, HPLC Protocol U) was 98%.
In the case of “N-methyl-L-valyl-N-[(3R,4S,5S)-1-{(2S)-2-[(1R,2R)-3-{[(1S)-1-carboxy-2-phenylethyl]amino}-1-methoxy-2-methyl-3-thioxopropyl]pyrrolidin-1-yl}-3-methoxy-5-methyl-1-oxoheptan-4-yl]-N-methyl-L-valinamide, trifluoroacetic acid salt”, the step yield [1] is reported as 59%.
In the case of “2-methyl-D-prolyl-N-[(3R,4S,5S)-3-methoxy-1-{(2S)-2-[(1R,2R)-1-methoxy-3-{[(2S)-1-methoxy-1-oxo-3-phenylpropan-2-yl]amino}-2-methyl-3-oxopropyl]pyrrolidin-1-yl}-5-methyl-1-oxoheptan-4-yl]-N-methyl-L-valinamide”, the step yield (coupling step) is reported as 54% and the “final HPLC purity” value [2] is reported as >98%.
In the case of “1,2-dimethyl-L-prolyl-N-[(3R,4S,5S)-3-methoxy-1-{(2S)-2-[(1R,2R)-1-methoxy-3-{[(2S)-1-methoxy-1-oxo-3-phenylpropan-2-yl]amino}-2-methyl-3-oxopropyl]pyrrolidin-1-yl}-5-methyl-1-oxoheptan-4-yl]-N-methyl-L-valinamide”, the step yield (coupling step) is reported as 41% and the “final HPLC purity” value [2] is reported as 100%.
With “1,2-dimethyl-D-prolyl-N-[(3R,4S,5S)-3-methoxy-1-{(2S)-2-[(1R,2R)-1-methoxy-3-{[(2S)-1-methoxy-1-oxo-3-(1,2,3,4-tetrahydroquinolin-6-yl)propan-2-yl]amino}-2-methyl-3-oxopropyl]pyrrolidin-1-yl}-5-methyl-1-oxoheptan-4-yl]-N-methyl-L-valinamide” the step yield (coupling step) was 48% and the “final HPLC purity” value [2] was 100%.
In the case of “methyl N-{(2R,3R)-3-methoxy-3-[(2S)-1-{(3R,4S,5S)-3-methoxy-5-methyl-4-[methyl(L-valyl)amino]heptanoyl}pyrrolidin-2-yl]-2-methylpropanoyl}-L-phenylalaninate”, the step yield (late stage modification step) is reported as 67% and the “final HPLC purity” value [3] is reported as >98%.
In the case of “1,2-dimethyl-L-prolyl-N-[(3R,4S,5S)-1-{(2S)-2-[(1R,2R)-3-{[(2S)-3-(4-aminophenyl)-1-methoxy-1-oxopropan-2-yl]amino}-1-methoxy-2-methyl-3-oxopropyl]pyrrolidin-1-yl}-3-methoxy-5-methyl-1-oxoheptan-4-yl]-N-methyl-L-valinamide”, the step yield (coupling step) is reported as 51% and the “final HPLC purity” value [2] is reported as 100%.
With “2-methyl-L-prolyl-N-[(3R,4S,5S)-1-{(2S)-2-[(1R,2R)-3-{[(1S)-1-carboxy-2-phenylethyl]amino}-1-methoxy-2-methyl-3-oxopropyl]pyrrolidin-1-yl}-3-methoxy-5-methyl-1-oxoheptan-4-yl]-N-methyl-L-valinamide” the step yield (late stage modification step) was 89% and the “final HPLC purity” value [3] was >98%.
“N^2-[(9H-fluoren-9-ylmethoxy)carbonyl]-N-[(3R,4S,5S)-3-methoxy-1-{(2S)-2-[(1R,2R)-1-methoxy-2-methyl-3-oxo-3-{[(1S)-2-phenyl-1-(1,3-thiazol-2-yl)ethyl]amino}propyl]pyrrolidin-1-yl}-5-methyl-1-oxoheptan-4-yl]-N-methyl-L-valinamide” showed a step yield (coupling step) of 45%.
“N^2-(3-{[(9H-fluoren-9-ylmethoxy)carbonyl]amino}-2,2-dimethylpropanoyl)-N-{(3R,4S,5S)-3-methoxy-1-[(2S)-2-{(1R,2R)-1-methoxy-2-methyl-3-oxo-3-[(2-phenylethyl)amino]propyl}pyrrolidin-1-yl]-5-methyl-1-oxoheptan-4-yl}-N-methyl-L-valinamide” showed a step yield (coupling step) of 65%.
Substance “N-{(2R,3R)-3-[(2S)-1-{(3R,4S,5S)-4-[(N-{[(3R)-3-fluoropyrrolidin-3-yl]carbonyl}-L-valyl)(methyl)amino]-3-methoxy-5-methylheptanoyl}pyrrolidin-2-yl]-3-methoxy-2-methylpropanoyl}-L-phenylalanine, trifluoroacetic acid salt” has a step yield (late stage modification step, over two steps) of 86% over two steps.
With “N^2-[(3-aminooxetan-3-yl)carbonyl]-N-{(3R,4S,5S)-3-methoxy-1-[(2S)-2-{(1R,2R)-1-methoxy-2-methyl-3-oxo-3-[(2-phenylethyl)amino]propyl}pyrrolidin-1-yl]-5-methyl-1-oxoheptan-4-yl}-N-methyl-L-valinamide, acetic acid salt” the step yield (late stage modification step, over two steps, acetic acid salt) was 26%, over two steps.
“methyl N-{(2R,3R)-3-[(2S)-1-{(3R,4S,5S)-4-[(N-{[(3R)-3-fluoropyrrolidin-3-yl]carbonyl}-L-valyl)(methyl)amino]-3-methoxy-5-methylheptanoyl}pyrrolidin-2-yl]-3-methoxy-2-methylpropanoyl}-L-phenylalaninate, trifluoroacetic acid salt [#173]” showed a step yield [4] of 45%.
Work on “N^2-[(1-aminocyclopentyl)carbonyl]-N-[(3R,4S,5S)-3-methoxy-1-{(2S)-2-[(1R,2R)-1-methoxy-2-methyl-3-oxo-3-{[(1S)-2-phenyl-1-(1,3-thiazol-2-yl)ethyl]amino}propyl]pyrrolidin-1-yl}-5-methyl-1-oxoheptan-4-yl]-N-methyl-L-valinamide” yielded a step yield (late stage modification step) of 96%.
In the case of “N^2-[(1-{[(9H -fluoren-9-ylmethoxy)carbonyl]amino}cyclopentyl)carbonyl]-N-[(3R,4S,5S)-3-methoxy-1-{(2S)-2-[(1R,2R)-1-methoxy-2-methyl-3-{[(1S)-2-phenyl-1-(1,3-thiazol-2-yl)ethyl]amino}-3-thioxopropyl]pyrrolidin-1-yl}-5-methyl-1-oxoheptan-4-yl]”, the step yield (coupling step) is reported as 67%.
In the case of “methyl N-{(2R,3R)-3-methoxy-3-[(2S)-1-{(3R,4S,5S)-3-methoxy-5-methyl-4-[methyl(N-{[(2R)-2-methylpiperidin-2-yl]carbonyl}-L-valyl)amino]heptanoyl}pyrrolidin-2-yl]-2-methylpropanoyl}-L-phenylalaninate, trifluoroacetic acid salt”, the “final HPLC purity” value (coupling step, HPLC (Protocol A), TFA salt) is reported as 89% and the step yield (coupling step, TFA salt) is reported as 33%.
For “1,2-dimethyl-D-prolyl-N-[(3R,4S,5S)-1-{(2S)-2-[(1R,2R)-3-({(2S)-3-[4-({N-[6-(2,5-dioxo-2,5-dihydro-1H-pyrrol-1-yl)hexanoyl]glycyl}amino)phenyl]-1-methoxy-1-oxopropan-2-yl}amino)-1-methoxy-2-methyl-3-oxopropyl]pyrrolidin-1-yl}-3-methoxy-5-methyl-1-oxoheptan-4-yl]-N-methyl-L-valinamide”, the step yield (coupling step) was 16.2% and the “final HPLC purity” value [2] was 96%.
“N-[(9H-fluoren-9-ylmethoxy)carbonyl]-2-methylalanyl-N-{(3R,4S,5S)-3-methoxy-1-[(2S)-2-{(1R,2R)-1-methoxy-2-methyl-3-oxo-3-[(2-phenylethyl)amino]propyl}pyrrolidin-1-yl]-5-methyl-1-oxoheptan-4-yl}-N-methyl-L-valinamide” gave a step yield (coupling step) of 19%.
For “tert-butyl (2R)-2-{[(2S)-1-{[(3R,4S,5S)-3-methoxy-1-{(2S)-2-[(1R,2R)-1-methoxy-2-methyl-3-oxo-3-{[(1S)-2-phenyl-1-(1,3-thiazol-2-yl)ethyl]amino}propyl]pyrrolidin-1-yl}-5-methyl-1-oxoheptan-4-yl](methyl)amino}-3-methyl-1-oxobutan-2-yl]carbamoyl}”, the step yield (coupling step) was 37% and the “final HPLC purity” value (coupling step, HPLC Protocol W) was 95%.
Work on “2-methylalanyl-N-[(3R,4S,5S)-1-{(2S)-2-[(1R,2R)-3-{[(1S)-1-carboxy-2-phenylethyl]amino}-1-methoxy-2-methyl-3-oxopropyl]pyrrolidin-1-yl}-3-methoxy-5-methyl-1-oxoheptan-4-yl]-N-methyl-L-valinamide, trifluoroacetic acid salt” yielded a step yield [1] of 52%.
In the case of “methyl N-{(2R,3R)-3-[(2S)-1-{(3R,4S,5S)-4-[(N-{[(3R)-3-fluoropyrrolidin-3-yl]carbonyl}-L-valyl)(methyl)amino]-3-methoxy-5-methylheptanoyl}pyrrolidin-2-yl]-3-methoxy-2-methylpropanoyl}-L-phenylalaninate, trifluoroacetic acid salt [#172]”, the step yield [4] is reported as 51%.
In the case of “1,2-dimethyl-L-prolyl-N-[(3R,4S,5S)-3-methoxy-1-{(2S)-2-[(1R,2R)-1-methoxy-2-methyl-3-oxo-3-(pentafluorophenoxy)propyl]pyrrolidin-1-yl}-5-methyl-1-oxoheptan-4-yl]-N-methyl-L-valinamide”, the step yield (late stage modification step) is reported as 97%.
In the case of “N,2-dimethylalanyl-N-{(1S,2R)-4-{(2S)-2-[(1R,2R)-3-{[(1S)-1-benzyl-2-(methylamino)-2-oxoethyl]amino}-1-methoxy-2-methyl-3-oxopropyl]pyrrolidin-1-yl}-2-methoxy-1-[(1S)-1-methylpropyl]-4-oxobutyl}-N-methyl-L-valinamide, trifluoroacetic acid salt”, the step yield (late stage modification step, TFA salt) is reported as 30%.
For “2-methylalanyl-N-[(3R,4S,5S)-3-methoxy-1-{(2S)-2-[(1R,2R)-1-methoxy-2-methyl-3-{[(1S)-2-phenyl-1-(1,3-thiazol-2-yl)ethyl]amino}-3-thioxopropyl]pyrrolidin-1-yl}-5-methyl-1-oxoheptan-4-yl]-N-methyl-L-valinamide”, the step yield (late stage modification step) was 60% and the “final HPLC purity” value [3] was >75%.
“1,2-dimethyl-L-prolyl-N-[(3R,4S,5S)-1-{(2S)-2-[(1R,2R)-3-{[(2S)-1-{[6-(2,5-dioxo-2,5-dihydro-1H-pyrrol-1-yl)hexyl]amino}-1-oxo-3-phenylpropan-2-yl]amino}-1-methoxy-2-methyl-3-oxopropyl]pyrrolidin-1-yl}-3-methoxy-5-methyl-1-oxoheptan-4-yl]-N-methyl-L-valinamide” gave a conjugation yield (conjugation step) of 86%.
For “N˜2˜-{[(3R)-3-fluoropyrrolidin-3-yl]carbonyl}-N-[(3R,4S,5S)-3-methoxy-1-{(2S)-2-[(1R,2R)-1-methoxy-2-methyl-3-oxo-3-{[(1S)-2-phenyl-1-(1,3-thiazol-2-yl)ethyl]amino}propyl]pyrrolidin-1-yl}-5-methyl-1-oxoheptan-4-yl]-N-methyl-L-valinamide”, the step yield (late stage modification step) was 60% and the “final HPLC purity” value (late stage modification step, HPLC Protocol T) was 100%.
